Source: paper PMC10139083

Chains of the proteins cited; added tags and fusions are not shown. Residues count along the entry.
UniProt P54760, residues 16-987: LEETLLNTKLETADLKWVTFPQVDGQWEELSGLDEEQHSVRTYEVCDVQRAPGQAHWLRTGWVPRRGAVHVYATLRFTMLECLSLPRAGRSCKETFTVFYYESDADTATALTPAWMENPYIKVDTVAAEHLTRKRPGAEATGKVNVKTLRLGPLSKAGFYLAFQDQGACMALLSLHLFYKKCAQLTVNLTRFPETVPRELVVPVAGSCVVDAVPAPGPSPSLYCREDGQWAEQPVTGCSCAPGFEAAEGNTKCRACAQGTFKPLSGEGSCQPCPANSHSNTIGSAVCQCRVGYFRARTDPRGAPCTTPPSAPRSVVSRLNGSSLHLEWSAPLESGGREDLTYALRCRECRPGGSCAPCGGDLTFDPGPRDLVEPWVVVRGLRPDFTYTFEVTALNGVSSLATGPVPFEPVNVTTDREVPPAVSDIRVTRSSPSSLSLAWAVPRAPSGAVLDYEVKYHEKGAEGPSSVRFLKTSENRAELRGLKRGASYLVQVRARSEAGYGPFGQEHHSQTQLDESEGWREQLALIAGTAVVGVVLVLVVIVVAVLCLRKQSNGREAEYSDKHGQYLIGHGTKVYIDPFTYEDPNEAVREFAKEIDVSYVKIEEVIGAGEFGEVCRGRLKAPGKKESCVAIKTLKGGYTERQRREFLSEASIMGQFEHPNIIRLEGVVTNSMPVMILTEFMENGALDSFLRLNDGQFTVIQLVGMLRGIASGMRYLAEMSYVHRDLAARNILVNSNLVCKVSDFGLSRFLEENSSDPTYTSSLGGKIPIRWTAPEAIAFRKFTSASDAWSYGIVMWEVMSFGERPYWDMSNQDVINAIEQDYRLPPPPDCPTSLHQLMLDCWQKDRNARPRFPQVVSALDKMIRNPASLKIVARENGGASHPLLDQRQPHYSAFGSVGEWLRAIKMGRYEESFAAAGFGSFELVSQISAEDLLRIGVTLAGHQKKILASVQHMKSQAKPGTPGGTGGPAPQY
UniProt P22314: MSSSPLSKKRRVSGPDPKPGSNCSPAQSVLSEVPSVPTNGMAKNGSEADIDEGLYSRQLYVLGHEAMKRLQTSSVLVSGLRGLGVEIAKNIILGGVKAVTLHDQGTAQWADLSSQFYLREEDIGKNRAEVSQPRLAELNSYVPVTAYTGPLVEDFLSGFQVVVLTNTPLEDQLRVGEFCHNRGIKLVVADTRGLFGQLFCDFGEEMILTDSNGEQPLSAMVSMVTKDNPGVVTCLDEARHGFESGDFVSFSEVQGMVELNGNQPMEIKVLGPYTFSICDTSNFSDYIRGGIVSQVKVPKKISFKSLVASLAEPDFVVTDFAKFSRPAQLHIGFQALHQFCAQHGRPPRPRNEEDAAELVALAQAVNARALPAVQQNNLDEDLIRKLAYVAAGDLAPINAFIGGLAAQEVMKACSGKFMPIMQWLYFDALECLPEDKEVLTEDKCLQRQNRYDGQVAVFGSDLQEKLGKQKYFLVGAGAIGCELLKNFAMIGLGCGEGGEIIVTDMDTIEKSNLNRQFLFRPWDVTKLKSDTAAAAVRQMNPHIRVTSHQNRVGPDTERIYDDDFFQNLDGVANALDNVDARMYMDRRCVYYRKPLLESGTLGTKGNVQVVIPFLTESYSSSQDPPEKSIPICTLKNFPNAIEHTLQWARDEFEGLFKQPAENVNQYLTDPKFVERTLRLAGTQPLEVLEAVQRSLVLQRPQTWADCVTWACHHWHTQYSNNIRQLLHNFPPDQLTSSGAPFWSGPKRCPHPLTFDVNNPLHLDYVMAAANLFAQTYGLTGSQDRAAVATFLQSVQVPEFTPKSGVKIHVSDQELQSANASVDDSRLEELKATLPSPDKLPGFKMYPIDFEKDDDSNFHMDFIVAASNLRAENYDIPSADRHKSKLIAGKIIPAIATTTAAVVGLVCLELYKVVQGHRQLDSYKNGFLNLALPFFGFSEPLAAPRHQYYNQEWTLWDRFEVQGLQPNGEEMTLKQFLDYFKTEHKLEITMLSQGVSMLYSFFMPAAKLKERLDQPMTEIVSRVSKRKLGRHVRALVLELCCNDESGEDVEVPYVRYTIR
UniProt P61088: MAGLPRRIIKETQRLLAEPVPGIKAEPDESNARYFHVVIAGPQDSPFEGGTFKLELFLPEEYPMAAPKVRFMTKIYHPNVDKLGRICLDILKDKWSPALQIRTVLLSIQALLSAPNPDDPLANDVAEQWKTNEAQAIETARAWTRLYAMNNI

The substances below were run against EphB4 (Eph receptor B4), native protein of MSTO211H cells (human (endogenous in MSTO211H)) (UniProt P54760) (assay: affinity purification with mass spectrometry; EphB4 immunoprecipitated with anti-EphB4 antibody-coated prot A/G beads from MSTO211H total cell lysates after reversible cross-linking (SPDP); cells cultured with or without an IGF-II neutralizing antibody; label-free LC-Ms/Ms).

| binding | Substance |
| --- | --- |
| binds | Cdc48/p97 (Valosin-containing protein, VCP), native protein of MSTO211H cells (from UniProt P55072 1-806) (enzyme) |
| binds | UBA1 (E1 ubiquitin ligase), native protein of MSTO211H cells (from UniProt P22314 1-1058) (enzyme) |
| binds | UBE2N (E2 ubiquitin ligase), native protein of MSTO211H cells (from UniProt P61088 1-152) (enzyme) |

No constants are given. Whether binding was seen depends on the method and setting. Binding seen in cells or lysates may run through a third protein. These calls come from enrichment with a bait or labelling near it, and not all partners need be listed.
